Measurements reported in the supplement of paper PMC12823440, “Inhibitors supercharge kinase turnover through native proteolytic circuits” (Nature, 2025).
Counter-ions that a name gives are not always drawn. This is one part of the list. Hit calls seldom repeat between salt and free forms of one compound.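 In K562 cells expressing nanoluciferase-fused kinases, luminescence was recorded at 4 h intervals between 2 and 18 h, normalized as percent of control with DMSO at 100% and a positive control at 0%. A significant (2 sigma) signal drop marks a time point as decreased. The authors' rule for a hit is not shown and takes in more than the number of time points.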

Protein sequences, listed by entry. Tags and fused reporters are not part of them. Lines headed by an entry give the natural chain unless they say otherwise; changes in a name come on top.
UniProt P07949, whole entry, looked up: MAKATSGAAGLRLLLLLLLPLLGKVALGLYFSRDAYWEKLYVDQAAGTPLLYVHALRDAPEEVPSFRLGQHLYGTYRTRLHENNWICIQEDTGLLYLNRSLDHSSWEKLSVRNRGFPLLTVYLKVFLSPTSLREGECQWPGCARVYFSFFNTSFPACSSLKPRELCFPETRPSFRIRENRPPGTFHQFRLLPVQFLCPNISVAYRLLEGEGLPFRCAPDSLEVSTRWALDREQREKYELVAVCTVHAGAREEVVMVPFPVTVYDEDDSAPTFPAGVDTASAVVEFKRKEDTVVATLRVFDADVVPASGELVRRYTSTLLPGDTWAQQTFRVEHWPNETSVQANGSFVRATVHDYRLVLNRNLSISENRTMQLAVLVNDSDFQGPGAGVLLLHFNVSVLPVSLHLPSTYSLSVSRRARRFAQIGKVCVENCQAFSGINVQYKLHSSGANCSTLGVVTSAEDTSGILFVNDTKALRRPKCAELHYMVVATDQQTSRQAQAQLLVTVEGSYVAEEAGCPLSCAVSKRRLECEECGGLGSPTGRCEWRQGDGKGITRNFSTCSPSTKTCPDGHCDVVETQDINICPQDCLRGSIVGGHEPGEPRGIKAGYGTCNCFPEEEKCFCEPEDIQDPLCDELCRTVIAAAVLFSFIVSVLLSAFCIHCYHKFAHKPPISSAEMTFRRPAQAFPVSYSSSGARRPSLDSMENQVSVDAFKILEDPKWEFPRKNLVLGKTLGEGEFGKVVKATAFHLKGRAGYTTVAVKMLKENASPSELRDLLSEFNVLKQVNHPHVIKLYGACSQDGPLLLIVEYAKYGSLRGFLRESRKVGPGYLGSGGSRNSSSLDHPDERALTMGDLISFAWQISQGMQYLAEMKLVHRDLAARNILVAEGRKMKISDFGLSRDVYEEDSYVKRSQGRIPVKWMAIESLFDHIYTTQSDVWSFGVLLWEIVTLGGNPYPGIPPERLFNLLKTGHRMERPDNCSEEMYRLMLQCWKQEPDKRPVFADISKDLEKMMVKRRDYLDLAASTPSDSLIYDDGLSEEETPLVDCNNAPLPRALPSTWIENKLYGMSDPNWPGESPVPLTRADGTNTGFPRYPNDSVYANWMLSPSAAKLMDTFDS
UniProt P07949, whole entry M918T, looked up: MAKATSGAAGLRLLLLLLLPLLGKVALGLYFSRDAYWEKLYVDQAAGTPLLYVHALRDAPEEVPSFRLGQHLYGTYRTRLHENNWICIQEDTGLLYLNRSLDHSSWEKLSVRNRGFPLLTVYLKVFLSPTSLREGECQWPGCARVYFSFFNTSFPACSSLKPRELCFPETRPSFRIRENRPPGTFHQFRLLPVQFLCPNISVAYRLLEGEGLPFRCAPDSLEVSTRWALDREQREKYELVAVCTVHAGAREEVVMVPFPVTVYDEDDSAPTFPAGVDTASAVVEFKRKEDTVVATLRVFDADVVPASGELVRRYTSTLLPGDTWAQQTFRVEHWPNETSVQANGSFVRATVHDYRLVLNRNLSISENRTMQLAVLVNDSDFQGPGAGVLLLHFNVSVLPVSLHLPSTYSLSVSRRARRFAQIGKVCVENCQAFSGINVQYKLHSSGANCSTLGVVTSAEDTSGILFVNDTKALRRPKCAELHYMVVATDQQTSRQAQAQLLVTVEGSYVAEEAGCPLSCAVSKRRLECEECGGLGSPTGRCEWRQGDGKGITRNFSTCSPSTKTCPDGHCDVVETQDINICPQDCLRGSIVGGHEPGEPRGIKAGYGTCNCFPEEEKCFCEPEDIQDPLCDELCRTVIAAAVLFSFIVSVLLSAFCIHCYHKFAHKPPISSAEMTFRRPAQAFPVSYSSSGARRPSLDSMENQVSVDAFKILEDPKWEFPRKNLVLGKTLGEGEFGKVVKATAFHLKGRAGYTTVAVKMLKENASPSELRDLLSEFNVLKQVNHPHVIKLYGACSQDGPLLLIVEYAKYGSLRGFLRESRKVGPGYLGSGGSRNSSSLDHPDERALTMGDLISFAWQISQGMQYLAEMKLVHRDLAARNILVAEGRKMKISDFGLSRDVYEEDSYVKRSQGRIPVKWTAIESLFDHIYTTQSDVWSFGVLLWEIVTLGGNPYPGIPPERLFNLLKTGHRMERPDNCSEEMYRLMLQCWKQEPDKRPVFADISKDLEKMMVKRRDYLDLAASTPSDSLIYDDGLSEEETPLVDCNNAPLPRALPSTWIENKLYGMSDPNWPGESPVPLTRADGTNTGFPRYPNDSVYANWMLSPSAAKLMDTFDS
UniProt Q9BRS2: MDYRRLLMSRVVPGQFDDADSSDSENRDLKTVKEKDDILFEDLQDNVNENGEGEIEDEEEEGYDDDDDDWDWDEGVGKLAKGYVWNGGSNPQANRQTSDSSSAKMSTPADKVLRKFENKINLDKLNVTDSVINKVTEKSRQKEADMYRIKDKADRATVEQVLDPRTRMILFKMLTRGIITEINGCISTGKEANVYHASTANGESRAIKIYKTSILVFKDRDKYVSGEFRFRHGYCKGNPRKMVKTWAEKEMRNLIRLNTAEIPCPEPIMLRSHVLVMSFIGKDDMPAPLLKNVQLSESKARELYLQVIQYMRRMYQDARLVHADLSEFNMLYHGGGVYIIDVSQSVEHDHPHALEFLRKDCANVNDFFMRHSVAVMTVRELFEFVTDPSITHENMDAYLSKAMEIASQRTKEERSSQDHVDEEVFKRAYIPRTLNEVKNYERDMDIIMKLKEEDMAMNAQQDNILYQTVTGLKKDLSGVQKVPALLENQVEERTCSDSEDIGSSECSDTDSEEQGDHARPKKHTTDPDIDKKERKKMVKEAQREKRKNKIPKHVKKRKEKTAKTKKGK
UniProt Q13546: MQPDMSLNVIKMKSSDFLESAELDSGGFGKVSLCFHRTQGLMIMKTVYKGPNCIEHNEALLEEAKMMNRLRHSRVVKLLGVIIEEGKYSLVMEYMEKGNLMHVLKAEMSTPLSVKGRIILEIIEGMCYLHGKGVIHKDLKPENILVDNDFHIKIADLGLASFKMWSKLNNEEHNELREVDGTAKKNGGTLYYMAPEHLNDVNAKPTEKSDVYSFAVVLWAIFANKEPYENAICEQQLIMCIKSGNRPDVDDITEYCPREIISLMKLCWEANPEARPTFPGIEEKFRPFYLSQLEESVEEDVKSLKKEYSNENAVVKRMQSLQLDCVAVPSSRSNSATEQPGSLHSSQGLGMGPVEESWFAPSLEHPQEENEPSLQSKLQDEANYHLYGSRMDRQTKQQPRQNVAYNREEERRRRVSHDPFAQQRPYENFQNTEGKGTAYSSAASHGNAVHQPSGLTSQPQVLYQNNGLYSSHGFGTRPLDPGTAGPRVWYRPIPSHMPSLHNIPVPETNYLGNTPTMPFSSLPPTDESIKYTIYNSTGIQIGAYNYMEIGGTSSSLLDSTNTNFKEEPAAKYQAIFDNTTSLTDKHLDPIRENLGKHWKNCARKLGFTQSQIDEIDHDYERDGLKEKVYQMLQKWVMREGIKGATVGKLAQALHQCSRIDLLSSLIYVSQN
UniProt Q01974, whole entry: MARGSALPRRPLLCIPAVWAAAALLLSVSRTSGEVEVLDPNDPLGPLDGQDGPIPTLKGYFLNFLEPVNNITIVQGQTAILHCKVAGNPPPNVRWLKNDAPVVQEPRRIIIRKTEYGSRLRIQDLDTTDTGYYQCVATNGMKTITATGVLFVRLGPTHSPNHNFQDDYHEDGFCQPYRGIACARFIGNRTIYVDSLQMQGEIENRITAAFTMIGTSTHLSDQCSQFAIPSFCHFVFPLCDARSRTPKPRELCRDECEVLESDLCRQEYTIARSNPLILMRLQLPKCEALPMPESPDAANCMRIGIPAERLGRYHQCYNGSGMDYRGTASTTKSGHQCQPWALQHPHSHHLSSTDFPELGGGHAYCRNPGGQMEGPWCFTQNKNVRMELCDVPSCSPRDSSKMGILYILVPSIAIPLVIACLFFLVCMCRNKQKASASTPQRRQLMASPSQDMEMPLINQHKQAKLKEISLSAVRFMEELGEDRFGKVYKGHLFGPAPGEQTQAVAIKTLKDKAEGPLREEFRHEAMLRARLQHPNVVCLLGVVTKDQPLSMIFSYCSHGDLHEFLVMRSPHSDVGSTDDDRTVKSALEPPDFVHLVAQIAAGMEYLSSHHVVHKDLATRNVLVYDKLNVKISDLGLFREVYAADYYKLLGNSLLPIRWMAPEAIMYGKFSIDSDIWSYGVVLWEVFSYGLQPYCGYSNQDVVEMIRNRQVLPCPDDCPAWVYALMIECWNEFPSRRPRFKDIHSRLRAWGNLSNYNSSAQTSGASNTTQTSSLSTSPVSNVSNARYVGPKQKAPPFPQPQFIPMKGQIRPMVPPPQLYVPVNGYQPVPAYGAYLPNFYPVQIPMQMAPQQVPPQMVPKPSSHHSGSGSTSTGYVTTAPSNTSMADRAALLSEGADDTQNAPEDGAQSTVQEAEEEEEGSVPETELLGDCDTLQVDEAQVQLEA
UniProt Q15418, whole entry: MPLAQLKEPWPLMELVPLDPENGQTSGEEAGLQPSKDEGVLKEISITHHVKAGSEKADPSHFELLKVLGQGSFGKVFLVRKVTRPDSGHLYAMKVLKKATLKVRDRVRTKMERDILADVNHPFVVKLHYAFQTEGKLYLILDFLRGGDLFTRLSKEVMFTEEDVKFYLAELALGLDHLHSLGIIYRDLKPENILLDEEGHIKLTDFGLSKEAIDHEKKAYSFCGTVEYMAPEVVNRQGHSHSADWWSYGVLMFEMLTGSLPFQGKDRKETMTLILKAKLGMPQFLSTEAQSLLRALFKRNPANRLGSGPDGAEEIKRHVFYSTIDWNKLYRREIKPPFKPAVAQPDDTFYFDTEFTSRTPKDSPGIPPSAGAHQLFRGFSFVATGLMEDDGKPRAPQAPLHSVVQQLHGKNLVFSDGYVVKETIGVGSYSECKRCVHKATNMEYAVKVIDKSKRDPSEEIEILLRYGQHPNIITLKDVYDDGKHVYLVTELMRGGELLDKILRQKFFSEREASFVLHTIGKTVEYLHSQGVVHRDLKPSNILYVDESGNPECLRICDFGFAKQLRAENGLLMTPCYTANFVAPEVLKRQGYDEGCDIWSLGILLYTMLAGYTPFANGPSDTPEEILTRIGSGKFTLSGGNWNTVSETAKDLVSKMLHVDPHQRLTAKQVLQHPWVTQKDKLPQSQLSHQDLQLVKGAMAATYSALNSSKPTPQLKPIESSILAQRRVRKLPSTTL
UniProt Q9NYA1, whole entry: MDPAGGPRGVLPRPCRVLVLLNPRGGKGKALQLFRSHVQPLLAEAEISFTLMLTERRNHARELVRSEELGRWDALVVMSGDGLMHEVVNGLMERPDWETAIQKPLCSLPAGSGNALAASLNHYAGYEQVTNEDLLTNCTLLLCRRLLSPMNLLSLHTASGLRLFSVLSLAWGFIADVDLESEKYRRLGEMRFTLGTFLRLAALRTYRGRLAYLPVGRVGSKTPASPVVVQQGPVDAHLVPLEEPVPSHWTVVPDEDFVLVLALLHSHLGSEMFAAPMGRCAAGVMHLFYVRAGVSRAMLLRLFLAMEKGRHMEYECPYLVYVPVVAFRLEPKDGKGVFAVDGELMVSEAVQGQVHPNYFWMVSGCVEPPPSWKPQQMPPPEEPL
UniProt Q9Y6E0: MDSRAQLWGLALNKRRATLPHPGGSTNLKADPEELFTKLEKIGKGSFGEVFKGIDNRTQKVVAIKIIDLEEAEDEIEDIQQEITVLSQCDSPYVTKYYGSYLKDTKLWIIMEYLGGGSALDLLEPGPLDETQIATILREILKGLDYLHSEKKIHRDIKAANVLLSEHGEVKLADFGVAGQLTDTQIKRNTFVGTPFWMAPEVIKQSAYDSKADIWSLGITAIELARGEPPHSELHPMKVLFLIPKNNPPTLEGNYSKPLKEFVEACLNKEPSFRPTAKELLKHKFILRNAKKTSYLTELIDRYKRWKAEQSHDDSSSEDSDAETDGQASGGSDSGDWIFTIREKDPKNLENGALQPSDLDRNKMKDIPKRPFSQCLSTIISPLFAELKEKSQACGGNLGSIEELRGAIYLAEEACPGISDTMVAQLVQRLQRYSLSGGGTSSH

Legend:
Experiment in all cases: kinase-Nluc reporter destabilization hit call (1 = scored as downregulated) (binary); higher = compound decreases kinase abundance
Details in all cases: K562; 2-18 h
RET = RET (UniProt P07949)
[1] = target: RET_M918T (clone: RET_mut) (UniProt P07949)
RIOK1 = RIOK1 (UniProt Q9BRS2)
RIPK1 = RIPK1 (UniProt Q13546)
RIPK2 = RIPK2 (UniProt O43353)
ROR2 = ROR2 (UniProt Q01974)
RPS6KA1 = RPS6KA1 (UniProt Q15418)
SPHK1 = SPHK1 (UniProt Q9NYA1)
SRC = SRC (UniProt P12931)
STK24 = STK24 (UniProt Q9Y6E0)

Measured: kinase-Nluc reporter destabilization hit call

CC(C)(NS(=O)(=O)c1ccc2c(Cl)cnc(N=C(N)N)c2c1)C(=O)O (10 µM)
inactive: RET 0 | [1] 0 | RIOK1 = 0 | RIPK1 = 0 | RIPK2 = 0 | ROR2 = 0 | RPS6KA1 = 0 | SPHK1 = 0 | SRC 0 | STK24 = 0

O=C1Nc2nc(-c3c(O)cccc3OCC3CC3)cc([C@@H]3CCCNC3)c2CO1 [Bay 65-1942 (hydrochloride)] (10 µM)
inactive: RET 0 | [1] 0 | RIOK1 = 0 | RIPK1 = 0 | RIPK2 = 0 | ROR2 = 0 | RPS6KA1 = 0 | SPHK1 = 0 | SRC 0 | STK24 = 0

CC(C)(C)c1ccc(S(=O)(=O)Nc2ccc(-n3ccnc3)cc2)cc1 (10 µM)
inactive: RET 0 | [1] 0 | RIOK1 = 0 | RIPK1 = 0 | RIPK2 = 0 | ROR2 = 0 | RPS6KA1 = 0 | SPHK1 = 0 | SRC 0 | STK24 = 0

Cc1cc2cc(Nc3ccnc(Nc4ccc5[nH]c(C)cc5c4)n3)ccc2[nH]1 (2.5 µM)
inactive: RET 0 | [1] 0 | RIOK1 = 0 | RIPK1 = 0 | RIPK2 = 0 | ROR2 = 0 | RPS6KA1 = 0 | SPHK1 = 0 | SRC 0 | STK24 = 0

CNc1nc(Nc2cnn(C3CCN(C4COC4)CC3F)c2Cl)ncc1C(F)(F)F (stereo not given) (10 µM)
inactive: RET 0 | [1] 0 | RIOK1 = 0 | RIPK1 = 0 | RIPK2 = 0 | ROR2 = 0 | RPS6KA1 = 0 | SPHK1 = 0 | SRC 0 | STK24 = 0

O=C(O)CCc1ccc(O)c(O)c1 [Dihydrocaffeic acid] (10 µM)
inactive: RET 0 | [1] 0 | RIOK1 = 0 | RIPK1 = 0 | RIPK2 = 0 | ROR2 = 0 | RPS6KA1 = 0 | SPHK1 = 0 | SRC 0 | STK24 = 0

Nc1nccc(Oc2ccc(NC(=O)c3cn(COP(=O)(O)O)cc(-c4ccc(F)cc4)c3=O)cc2F)c1Cl (10 µM)
inactive: RET 0 | [1] 0 | RIOK1 = 0 | RIPK1 = 0 | RIPK2 = 0 | ROR2 = 0 | RPS6KA1 = 0 | SPHK1 = 0 | SRC 0 | STK24 = 0

CC(=O)N1CCN(c2cc(-c3cc(C(F)(F)F)c4c(N)ncnn34)ccc2C#N)C(=O)C1(C)C (10 µM)
inactive: RET 0 | [1] 0 | RIOK1 = 0 | RIPK1 = 0 | RIPK2 = 0 | ROR2 = 0 | RPS6KA1 = 0 | SPHK1 = 0 | SRC 0 | STK24 = 0

COc1ncc(-c2nc(N3CCOCC3)nc3c(CN4CCC(C(C)(C)O)CC4)cc(F)cc23)cc1NS(C)(=O)=O [Linperlisib] (10 µM)
inactive: RET 0 | [1] 0 | RIOK1 = 0 | RIPK1 = 0 | RIPK2 = 0 | ROR2 = 0 | RPS6KA1 = 0 | SPHK1 = 0 | SRC 0 | STK24 = 0

C[C@@H](c1ccc2nccn2c1)n1nnc2ncc(-c3cnn(C)c3)nc21 [Savolitinib] (10 µM)
inactive: RET 0 | [1] 0 | RIOK1 = 0 | RIPK1 = 0 | RIPK2 = 0 | ROR2 = 0 | RPS6KA1 = 0 | SPHK1 = 0 | SRC 0 | STK24 = 0

O=C(Nc1cc(Oc2cc(F)c(NC(=O)C3(C(=O)Nc4ccc(F)cc4)CC3)cc2F)ccn1)C1CC1 [Altiratinib] (10 µM)
inactive: RET 0 | [1] 0 | RIOK1 = 0 | RIPK1 = 0 | RIPK2 = 0 | ROR2 = 0 | RPS6KA1 = 0 | SPHK1 = 0 | SRC 0 | STK24 = 0

Two compounds picked at random from those above, as already listed:
O=C(Nc1cc(Oc2cc(F)c(NC(=O)C3(C(=O)Nc4ccc(F)cc4)CC3)cc2F)ccn1)C1CC1 [Altiratinib] (10 µM)
inactive: RET 0 | [1] 0 | RIOK1 = 0 | RIPK1 = 0 | RIPK2 = 0 | ROR2 = 0 | RPS6KA1 = 0 | SPHK1 = 0 | SRC 0 | STK24 = 0

COc1ncc(-c2nc(N3CCOCC3)nc3c(CN4CCC(C(C)(C)O)CC4)cc(F)cc23)cc1NS(C)(=O)=O [Linperlisib] (10 µM)
inactive: RET 0 | [1] 0 | RIOK1 = 0 | RIPK1 = 0 | RIPK2 = 0 | ROR2 = 0 | RPS6KA1 = 0 | SPHK1 = 0 | SRC 0 | STK24 = 0

Remaining list, next part.

CC(C)=CCC[C@](C)(O[C@@H]1O[C@H](CO)[C@@H](O)[C@H](O)[C@H]1O)[C@H]1CC[C@]2(C)[C@@H]1[C@H](O)C[C@@H]1[C@@]3(C)CC[C@H](O)C(C)(C)[C@@H]3[C@@H](O[C@@H]3O[C@H](CO)[C@@H](O)[C@H](O)[C@H]3O[C@@H]3O[C@@H](C)[C@H](O)[C@@H](O)[C@H]3O)C[C@]12C [Ginsenoside Re] (10 µM)
inactive: RET 0 | [1] 0 | RIOK1 = 0 | RIPK1 = 0 | RIPK2 = 0 | ROR2 = 0 | RPS6KA1 = 0 | SPHK1 = 0 | SRC 0 | STK24 = 0

COCCOc1ccc(-c2cn(-c3ccccc3)c3nc[nH]c(=O)c23)cc1 (10 µM)
inactive: RET 0 | [1] 0 | RIOK1 = 0 | RIPK1 = 0 | RIPK2 = 0 | ROR2 = 0 | RPS6KA1 = 0 | SPHK1 = 0 | SRC 0 | STK24 = 0

CCN1CCN(Cc2ccc(Nc3ncc(F)c(-c4cc(F)c5nc(CO)n(C(C)C)c5c4)n3)nc2)CC1 [Abemaciclib metabolite M20] (2 µM)
inactive: RET 0 | [1] 0 | RIOK1 = 0 | RIPK1 = 0 | RIPK2 = 0 | ROR2 = 0 | RPS6KA1 = 0 | SPHK1 = 0 | SRC 0 | STK24 = 0

N[C@H](Cc1c[nH]c2ccccc12)C(=O)N/N=C/c1ccc2nccnc2c1 [Rhosin (hydrochloride)] (10 µM)
inactive: RET 0 | [1] 0 | RIOK1 = 0 | RIPK1 = 0 | RIPK2 = 0 | ROR2 = 0 | RPS6KA1 = 0 | SPHK1 = 0 | SRC 0 | STK24 = 0

Nc1ncnc2c1c(-c1ccc(Oc3ccccc3)cc1)nn2C1CCNCC1 [N-piperidine Ibrutinib (hydrochloride)] (10 µM)
inactive: RET 0 | [1] 0 | RIOK1 = 0 | RIPK1 = 0 | RIPK2 = 0 | ROR2 = 0 | RPS6KA1 = 0 | SPHK1 = 0 | SRC 0 | STK24 = 0

C/C(=C1/C(=O)Nc2ccc(NC(N)=O)cc21)c1ccc[nH]1 (10 µM)
inactive: RET 0 | [1] 0 | RIOK1 = 0 | RIPK1 = 0 | RIPK2 = 0 | ROR2 = 0 | RPS6KA1 = 0 | SPHK1 = 0 | SRC 0 | STK24 = 0

Cc1cc(Nc2nc(N[C@@H](C)c3ccc(F)cc3)c(C#N)cc2F)n[nH]1 (10 µM)
inactive: RET 0 | [1] 0 | RIOK1 = 0 | RIPK1 = 0 | RIPK2 = 0 | ROR2 = 0 | RPS6KA1 = 0 | SPHK1 = 0 | SRC 0 | STK24 = 0

Cc1ccc(S(=O)(=O)Nc2ccccc2C=Nc2ccccc2NS(=O)(=O)c2ccc(C)cc2)cc1 (10 µM)
inactive: RET 0 | [1] 0 | RIOK1 = 0 | RIPK1 = 0 | RIPK2 = 0 | ROR2 = 0 | RPS6KA1 = 0 | SPHK1 = 0 | SRC 0 | STK24 = 0

O=C(NC(NC(=S)Nc1ccc(F)c([N+](=O)[O-])c1)C(Cl)(Cl)Cl)C(c1ccccc1)c1ccccc1 (stereo not given) (10 µM)
inactive: RET 0 | [1] 0 | RIOK1 = 0 | RIPK1 = 0 | RIPK2 = 0 | ROR2 = 0 | RPS6KA1 = 0 | SPHK1 = 0 | SRC 0 | STK24 = 0

Cc1ccc(S(=O)(=O)/C=C/C#N)cc1 (10 µM)
inactive: RET 0 | [1] 0 | RIOK1 = 0 | RIPK1 = 0 | RIPK2 = 0 | ROR2 = 0 | RPS6KA1 = 0 | SPHK1 = 0 | SRC 0 | STK24 = 0

CCn1c(=O)c(-c2ccc(-c3cncc(C)n3)cc2Cl)cc2cnc(NCCC3CCN(C)CC3)nc21 (10 µM)
inactive: RET 0 | [1] 0 | RIOK1 = 0 | RIPK1 = 0 | RIPK2 = 0 | ROR2 = 0 | RPS6KA1 = 0 | SPHK1 = 0 | SRC 0 | STK24 = 0

Nc1cc(Nc2ccc(S(N)(=O)=O)cc2)ncn1 (10 µM)
inactive: RET 0 | [1] 0 | RIOK1 = 0 | RIPK1 = 0 | RIPK2 = 0 | ROR2 = 0 | RPS6KA1 = 0 | SPHK1 = 0 | SRC 0 | STK24 = 0

CC(C)c1cnc(-c2cc(Cl)ccc2F)cc1Nc1ccncc1C(=O)NC(CO)CO (2.5 µM)
inactive: RET 0 | [1] 0 | RIOK1 = 0 | RIPK1 = 0 | RIPK2 = 0 | ROR2 = 0 | RPS6KA1 = 0 | SPHK1 = 0 | SRC 0 | STK24 = 0

COc1c(NC(=O)C(=O)c2ccc(OCCN3CCOCC3)c3ccccc23)cc(C(C)(C)C)cc1NS(C)(=O)=O (2.5 µM)
inactive: RET 0 | [1] 0 | RIOK1 = 0 | RIPK1 = 0 | RIPK2 = 0 | ROR2 = 0 | RPS6KA1 = 0 | SPHK1 = 0 | SRC 0 | STK24 = 0

Cc1cc(O)c(C(C)C)cc1N=O [Poloxime] (10 µM)
inactive: RET 0 | [1] 0 | RIOK1 = 0 | RIPK1 = 0 | RIPK2 = 0 | ROR2 = 0 | RPS6KA1 = 0 | SPHK1 = 0 | SRC 0 | STK24 = 0

COc1ccc([C@@H]2CC(=O)c3c(O)cc(O)cc3O2)cc1O [Hesperetin] (10 µM)
inactive: RET 0 | [1] 0 | RIOK1 = 0 | RIPK1 = 0 | RIPK2 = 0 | ROR2 = 0 | RPS6KA1 = 0 | SPHK1 = 0 | SRC 0 | STK24 = 0

Cc1ccc2nc(NC(=O)CSc3nc4c(c(=O)n3-c3ccccc3)SCC4)sc2c1 (2 µM)
inactive: RET 0 | [1] 0 | RIOK1 = 0 | RIPK1 = 0 | RIPK2 = 0 | ROR2 = 0 | RPS6KA1 = 0 | SPHK1 = 0 | SRC 0 | STK24 = 0

Cc1cc(Nc2cc3ncccc3c(N[C@@H]3C[C@H]4CC[C@@H](C3)N4CCC#N)n2)n[nH]1 [Izencitinib] (10 µM)
inactive: RET 0 | [1] 0 | RIOK1 = 0 | RIPK1 = 0 | RIPK2 = 0 | ROR2 = 0 | RPS6KA1 = 0 | SPHK1 = 0 | SRC 0 | STK24 = 0
